Counter-ions that a name gives are not always drawn. The list shows a part of the results. Repeats in this data set agree poorly, so a single value says little.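 Human U-2 OS cells stably expressing a GFP sensor with a nuclear import signal and classical export signal were transfected to produce PR50, a 50-repeat proline–arginine dipeptide from ALS/FTD gene C9ORF72. Nuclear-minus-cytoplasm GFP was scaled from DMSO (low) to PR-only (high), scored against plate test wells; strongly negative scores marked PR-reversing hits.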
Test system: U-2 OS NCT-C biosensor cells expressing PR50
Test: Z-score of normalised NCT-C biosensor translocation index in PR50-expressing cells; higher = more nuclear biosensor (more disrupted nuclear export)
Conditions: 3 µM; 24 h

| SMILES | Z-score |
| --- | --- |
| CC1=C(CC(=O)O)c2cc(F)ccc2/C1=C\c1ccc([S+](C)[O-])cc1 (stereo not given) [Sulindac] | inactive: -0.26 |
| NOCC(=O)O [O-(Carboxymethyl) hydroxylamine hemiHCl] | inactive: 1.02 |
| CCOC(=O)[C@H](CCc1ccccc1)N[C@@H](C)C(=O)N1CCC[C@H]1C(=O)O [Enalapril] | inactive: 0.63 |
| CCOC(=O)[C@H](CCc1ccccc1)N[C@@H](C)C(=O)N1CCC[C@H]1C(=O)O [Enalapril Maleate] | inactive: -0.545 |
| NC[C@@H]1O[C@H](c2ccccc2)Cc2c1ccc(O)c2O | inactive: -0.128 |
| CN1CC2c3ccccc3Oc3ccc(Cl)cc3C2C1 (stereo not given) [Asenapine Maleate] | inactive: 0.424 |
| COc1cc(C(O)C(=O)O)ccc1O (racemic) [(±)-  Vanillylmandelic acid] | inactive: -0.285 |
| CC(=O)C(C)=O [2,3-Butanedione] | inactive: 0.521 |
| CN1[C@@H](CC(=O)c2ccccc2)CCC[C@H]1C[C@H](O)c1ccccc1 [Lobeline·HCl] | inactive: -0.314 |
| CN1[C@@H](CC(=O)c2ccccc2)CCC[C@H]1C[C@H](O)c1ccccc1 [alpha-Lobeline hydrochloride] | inactive: 0.331 |
| CCCCCCCN(CC)CCCC(O)c1ccc(NS(C)(=O)=O)cc1 (stereo not given) [Ibutilide Fumarate] | inactive: 1.08 |
| Cc1nnc(C(C)C)n1C1C[C@H]2CC[C@@H](C1)N2CC[C@H](NC(=O)C1CCC(F)(F)CC1)c1ccccc1 (stereo in doubt) [Maraviroc] | inactive: 0.0715 |
| C=C1C[C@]23C[C@@]1(O)CC[C@H]2[C@@]12C=C[C@H](O)[C@@](C)(C(=O)O1)[C@H]2[C@@H]3C(=O)O [(+)-Gibberellic acid] | inactive: -0.586 |
| O=C(NCc1cccnc1)c1ccc([N+](=O)[O-])o1 | inactive: 0.516 |
| COc1ccc(-c2cc(=O)c3c(O)cc(O[C@@H]4O[C@H](CO[C@@H]5O[C@@H](C)[C@H](O)[C@@H](O)[C@H]5O)[C@@H](O)[C@H](O)[C@H]4O)cc3o2)cc1O [Diosmin] | inactive: -0.655 |
| CCOC(=O)C1=C[C@]2(CC)CCCN3CCc4c(n1c1ccccc41)[C@@H]32 [Vinpocetine] | inactive: -0.394 |
| CCOC(=O)C1=C[C@]2(CC)CCCN3CCc4c(n1c1ccccc41)[C@@H]32 [Vinpocetin] | inactive: -0.345 |
| CCCCC(C)(O)C/C=C/[C@H]1[C@H](O)CC(=O)[C@@H]1CCCCCCC(=O)OC (mixture of isomers) [Misoprostol] | inactive: 0.44 |
| CNCCC(Oc1ccccc1OC)c1ccccc1 (stereo not given) [Nisoxetine hydrochloride] | inactive: -0.452 |
| COc1cc(CCC(C)=O)ccc1O [Vanillylacetone] | inactive: -0.994 |
| O=NN(CCCl)C(=O)NC1CCCCC1 [Lomustine] | inactive: 0.332 |
| CC(C)Cc1ccc(C(C)C(=O)O)cc1 (racemic) [(±)-Ibuprofen] | inactive: -0.608 |
| Cc1cccc(CN2CCN(C(c3ccccc3)c3ccc(Cl)cc3)CC2)c1 (stereo not given) [Meclizine Dihydrochloride] | inactive: 0.0539 |
| CCCCCCCCc1ccc(CCC(N)(CO)CO)cc1 [Fingolimod] | inactive: 0.161 |

A few values from the list:
In Z-score, CCCCCCCCc1ccc(CCC(N)(CO)CO)cc1 [Fingolimod] reads inactive: 0.161
In Z-score, CCOC(=O)C1=C[C@]2(CC)CCCN3CCc4c(n1c1ccccc41)[C@@H]32 [Vinpocetin] reads inactive: -0.345
In Z-score, CCOC(=O)[C@H](CCc1ccccc1)N[C@@H](C)C(=O)N1CCC[C@H]1C(=O)O [Enalapril Maleate] reads inactive: -0.545
In Z-score, CC(C)Cc1ccc(C(C)C(=O)O)cc1 (racemic) [(±)-Ibuprofen] reads inactive: -0.608

Additional records.

| SMILES | Z-score |
| --- | --- |
| C[C@]12CC[C@@H]3c4ccc(O)cc4CC[C@H]3[C@@H]1CCC2=O [Estrone] | inactive: -0.224 |
| CCNCc1nc2c(N)nc3ccccc3c2n1CC(C)(C)O [Gardiquimod] | inactive: 0.813 |
| COc1ccc2cc1Oc1ccc(cc1)C[C@H]1c3cc(c(OC)cc3CCN1C)Oc1c(OC)c(OC)cc3c1[C@H](C2)N(C)CC3 [Tetrandrine] | inactive: -0.0136 |
| COc1cc(/C=C/c2ccccc2)oc(=O)c1 [5,6-Dehydrokawain] | inactive: -0.554 |
| CCC1=C(C)CN(C(=O)NCCc2ccc(S(=O)(=O)NC(=O)N[C@H]3CC[C@H](C)CC3)cc2)C1=O [Glimepiride] | inactive: -0.132 |
| CCS(=O)(=O)CCn1c([N+](=O)[O-])cnc1C [Tinidazole] | inactive: -0.0829 |
| O=C1CCc2cc(OCCCCc3nnnn3C3CCCCC3)ccc2N1 [Cilostazol] | inactive: 1.88 |
| O=P(O)(O)C(Cl)(Cl)P(=O)(O)O [Clodronic acid] | inactive: 0.181 |
| CC[C@H]1OC(=O)[C@H](C)C(=O)[C@H](C)[C@@H](O[C@@H]2O[C@H](C)C[C@H](N(C)C)[C@H]2O)[C@](C)(OC)C[C@@H](C)C(=O)[C@H](C)[C@H]2N(CCCCn3cnc(-c4cccnc4)c3)C(=O)O[C@]12C [Telithromycin] | inactive: -0.0276 |
| COC(=O)[C@@H]1[C@H]2C[C@H]3c4[nH]c5ccccc5c4CCN3C[C@@H]2CC[C@@H]1O [Yohimbine hydrochloride] | inactive: 0.262 |
| COC(=O)[C@@H]1[C@H]2C[C@H]3c4[nH]c5ccccc5c4CCN3C[C@@H]2CC[C@@H]1O [Yohimbine·HCl] | inactive: -0.777 |
| C=C(C)[C@@H]1CC=C(C(=O)O)CC1 [(S)-(-)-Perillic acid] | inactive: -0.304 |
| C=C(C)[C@@H]1CC=C(C(=O)O)CC1 [Perillic acid] | inactive: -0.413 |
| Oc1c2ccccc2c2c3c(cccc13)N=N2 | inactive: -0.342 |
| CC(C)C[C@H](NC(=O)[C@H]1O[C@@H]1C(=O)O)C(=O)NCCCCN=C(N)N | inactive: 0.422 |
| CC1(C)NC(=O)N(c2ccc([N+](=O)[O-])c(C(F)(F)F)c2)C1=O [Nilutamide] | inactive: 0.332 |
| CC(C)NCC(O)COc1cccc2ccccc12 (stereo not given) [Propranolol·HCl] | inactive: 0.47 |
| CCOc1ccccc1OCCN[C@H](C)Cc1ccc(OC)c(S(N)(=O)=O)c1 [Tamsulosin·HCl] | inactive: 0.337 |
| Cn1c(-c2ccc3c(c2)OCO3)cc(=O)c2ccccc21 [Graveoline] | inactive: 0.147 |
| O=S(=O)(O)CCS [Mesna] | inactive: 0.532 |
| CCCCNC(=O)NS(=O)(=O)c1ccc(C)cc1 [Tolbutamide] | inactive: -0.602 |
| O=C(O)c1cc(-c2ccc(F)cc2F)ccc1O [Diflunisal] | inactive: 0.241 |
| CCN1CC(CCN2CCOCC2)C(c2ccccc2)(c2ccccc2)C1=O (stereo not given) [Doxapram·HCl H2O] | inactive: 0.262 |
| COc1ccc(-c2cc(=O)c3ccc(O)cc3o2)cc1 [Pratol] | inactive: 0.805 |

| SMILES | Z-score |
| --- | --- |
| CC(=O)N[C@H]1[C@H]([C@H](O)[C@H](O)CO)OC(C(=O)O)=C[C@@H]1NC(=N)N [Zanamivir] | inactive: 1.23 |
| CCC(=O)O[C@]1(C(=O)CCl)[C@@H](C)C[C@H]2[C@@H]3C[C@H](F)C4=CC(=O)C=C[C@]4(C)[C@@]3(F)[C@@H](O)C[C@@]21C [Halobetasol Propionate] | inactive: 1.47 |
| Cc1nc2n(c(=O)c1CCN1CCC(c3noc4cc(F)ccc34)CC1)CCCC2 [Risperidone] | inactive: 0.868 |
| CNCCC(Oc1ccc(C(F)(F)F)cc1)c1ccccc1 (stereo not given) [Fluoxetine·HCl] | inactive: 0.789 |
| CNCCC(Oc1ccc(C(F)(F)F)cc1)c1ccccc1 (stereo not given) [Fluoxetine hydrochloride] | inactive: 0.104 |
| O=c1oc2cc(O)ccc2c2oc3cc(O)ccc3c12 [Coumestrol] | inactive: -0.917 |
| N=C(N)NCCC[C@H](N)C(=O)O [L-Arginine] | inactive: -0.237 |
| C[C@@H](CN1CC(=O)NC(=O)C1)N1CC(=O)NC(=O)C1 [Dexrazoxane] | inactive: -0.334 |
| OCc1cc(C(O)CNCCCCCCOCCCCc2ccccc2)ccc1O (stereo not given) [Salmeterol] | inactive: 0.678 |
| Cc1cc(C2CCCCC2)n(O)c(=O)c1 [Ciclopirox] | inactive: 0.536 |
| COc1cc(C(=O)NS(=O)(=O)c2ccccc2C)ccc1Cc1cn(C)c2ccc(NC(=O)OC3CCCC3)cc12 [Zafirlukast] | inactive: -0.0298 |
| Oc1cc(O)c2cc(O)c(-c3cc(O)c(O)c(O)c3)[o+]c2c1 [Delphinidin chloride] | active: -2.26 |
| NS(=O)(=O)c1cc(C(=O)O)c(NCc2ccco2)cc1Cl [Furosemide] | inactive: 0.203 |
| Cn1c(=O)c2[nH]c(C3CCCC3)nc2n(C)c1=O [8-Cyclopentyl-1,3-dimethylxanthine] | inactive: -0.553 |
| CC(C)COCC(CN(Cc1ccccc1)c1ccccc1)N1CCCC1 (stereo not given) [Bepridil hydrochloride] | inactive: 3.9 |
| NC(=O)c1ncn([C@@H]2O[C@H](CO)[C@@H](O)[C@H]2O)n1 [Ribavirin] | inactive: -0.352 |
| CCOC(=O)[C@H](CCc1ccccc1)N[C@@H](C)C(=O)N1[C@H](C(=O)O)C[C@@H]2CCC[C@@H]21 [Ramipril] | inactive: 0.0473 |
| NS(=O)(=O)c1cc2c(cc1Cl)N=CNS2(=O)=O [Chlorothiazide] | inactive: -0.217 |
| O=C(COc1ccc(Cl)cc1)NC1CCC(NC(=O)COc2ccc(Cl)cc2)CC1 (stereo not given) | inactive: 2.75 |
| O=c1c(O)c(-c2ccc(O)c(O)c2)oc2cc(O)ccc12 [Fisetin] | inactive: 0.486 |
| CNS(=O)(=O)Cc1ccc2[nH]cc(CCN(C)C)c2c1 [Sumatriptan Succinate] | inactive: 0.256 |
| CN[C@H](CC(C)C)C(=O)N[C@H]1C(=O)N[C@@H](CC(N)=O)C(=O)N[C@H]2C(=O)N[C@H]3C(=O)N[C@H](C(=O)N[C@H](C(=O)O)c4cc(O)cc(O)c4-c4cc3ccc4O)[C@H](O)c3ccc(c(Cl)c3)Oc3cc2cc(c3O[C@@H]2O[C@H](CO)[C@@H](O)[C@H](O)[C@H]2O[C@H]2C[C@](C)(N)[C@H](O)[C@H](C)O2)Oc2ccc(cc2Cl)[C@H]1O [Vancomycin hydrochloride] | inactive: -0.709 |

From the supplement of paper PMC8616043
